Data published in PMC7819943, “Rice protein-binding microarrays: a tool to detect cis-acting elements near promoter regions in rice”.
The other results are listed elsewhere or left out.

Protein sequences, listed by entry. Tags and fused reporters are not part of them.
UniProt Q0JBA9, entry or part of it: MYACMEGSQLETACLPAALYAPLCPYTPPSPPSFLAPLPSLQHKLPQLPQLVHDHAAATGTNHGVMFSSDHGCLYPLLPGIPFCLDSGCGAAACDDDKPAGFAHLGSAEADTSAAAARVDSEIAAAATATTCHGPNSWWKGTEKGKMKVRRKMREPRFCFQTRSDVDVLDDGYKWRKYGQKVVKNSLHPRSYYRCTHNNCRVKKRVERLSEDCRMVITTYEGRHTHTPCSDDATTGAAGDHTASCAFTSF

These sequences were tested against OsWRKY34 (Oryza sativa, UniProt Q0JBA9 1-250) (assay: protein-binding microarray (RPBM); PBS, 2% BSA, 51.3 ng/ul salmon testes DNA, 50 uM zinc acetate, 200 nM TF, 25 C, 1 h; high values mean tight binding). Conditions: protein: recombinant; tags: N-terminal polyhistidine and DsRed monomer fusion (pET32a); label: CyDye5-dUTP incorporated in the synthesized complementary strand; 3' TTTTT single-stranded linker to array surface; dsDNA, one strand shown.
How it was run: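 In PBS with 2% BSA, salmon testes DNA and 50 µM zinc acetate, 200 nM protein was incubated on a custom Agilent array at 25 °C for 1 h and then washed off. The array had been made double-stranded by primer extension with Cy5-dUTP and blocked with 2% BSA. The proteins were transcription factors fused N-terminally to polyhistidine and DsRed, expressed in E. coli BL21-CodonPlus and purified on Ni–NTA. The binding signal is per-feature fluorescence intensity (arbitrary units) from an Axon 4000B scanner.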

Sequence	binding signal
TTCCTGTTCCTGCAAGAAAACGCTCATCCTCTTGCTTTTTCGGAGTCACCTAGTGCAG	9650 fluorescence intensity (a.u.)
ATATAATGTAAGTATGCCACTGTCTCGCGTCGTCACTGAGCGGAGTCACCTAGTGCAG	10200 fluorescence intensity (a.u.)
CCTTCGTGCTGCCTTCAGTTGGGTCTACTCCACTTGCCACCGGAGTCACCTAGTGCAG	8380 fluorescence intensity (a.u.)
ACTTTAATTTTGGTCAGCTCCCGTACATGTAGTTAACTTGCGGAGTCACCTAGTGCAG	8770 fluorescence intensity (a.u.)
CTACTTTTGCAAAATGCTTCCTTTTTGCCTCAGTATCATTCGGAGTCACCTAGTGCAG	9030 fluorescence intensity (a.u.)
AAATGGATTTTGTCCAGCCGCACAGCCTGACGGTATCACTCGGAGTCACCTAGTGCAG	8640 fluorescence intensity (a.u.)
GTAAACTGATTTTTTCCCTTTTTCTAATTCGTTATTTTTTCGGAGTCACCTAGTGCAG	10000 fluorescence intensity (a.u.)
GGTCAAATATTTTTTAAAAAGTCAACGGCGTCAAATATTTCGGAGTCACCTAGTGCAG	11000 fluorescence intensity (a.u.)
TCCTTTTCTTAGTTTTTTTACCCTGATTTGGTTACTTCACCGGAGTCACCTAGTGCAG	10700 fluorescence intensity (a.u.)
TAGGGCATAACAGTATCACTTTTTTCGGTCACGTATAGCTCGGAGTCACCTAGTGCAG	8400 fluorescence intensity (a.u.)
GTACTACTCCAAATCGTGTTCCACATTTCTATTTTGCACACGGAGTCACCTAGTGCAG	10200 fluorescence intensity (a.u.)
ATTTTTGCATAACTACCATCCAATCACCATTTCTGAGGCACGGAGTCACCTAGTGCAG	8380 fluorescence intensity (a.u.)
ACTCTATCTGCTTTTAAATGTATGGTGCTATATATATGATCGGAGTCACCTAGTGCAG	8940 fluorescence intensity (a.u.)
TGTTTGAAAACCCCAAGCCATCCACCATTGACCAATGCCACGGAGTCACCTAGTGCAG	8850 fluorescence intensity (a.u.)
CTATATCCTCTGTTCGTCACTGCCTTCCTCTCCAAGTCCACGGAGTCACCTAGTGCAG	8400 fluorescence intensity (a.u.)
ATTGGCTGCTCATCTGCTGTACCCACATTTCATTTGGCCTCGGAGTCACCTAGTGCAG	8070 fluorescence intensity (a.u.)
AATTATTTTTCCTATCATTTGATTTATTGTTGAATATACTCGGAGTCACCTAGTGCAG	8330 fluorescence intensity (a.u.)
CTGCTCGCTTGCTTGCGCTGTCCAGTTTAGCTCTGTCTAGCGGAGTCACCTAGTGCAG	8630 fluorescence intensity (a.u.)
GAGGTACTTTGCACACTCTGTTCGCTGGTAAGCCGCGTTACGGAGTCACCTAGTGCAG	10000 fluorescence intensity (a.u.)
TGCTTTCCTACTCCCTGTGGGTGCAGCCGTTTTCATGCTCCGGAGTCACCTAGTGCAG	8120 fluorescence intensity (a.u.)
CCAATATGGACTCTGGACTCGTCTTTGAATGTTTCTTATTCGGAGTCACCTAGTGCAG	8680 fluorescence intensity (a.u.)

Part of the list above, set out differently.
ACTTTAATTTTGGTCAGCTCCCGTACATGTAGTTAACTTGCGGAGTCACCTAGTGCAG
  binding signal = 8770 fluorescence intensity (a.u.)
ACTCTATCTGCTTTTAAATGTATGGTGCTATATATATGATCGGAGTCACCTAGTGCAG
  binding signal = 8940 fluorescence intensity (a.u.)
CTATATCCTCTGTTCGTCACTGCCTTCCTCTCCAAGTCCACGGAGTCACCTAGTGCAG
  binding signal = 8400 fluorescence intensity (a.u.)

Carrying on:

Sequence	binding signal
AGATCGGGACCTAACATCCTCATCAGCCACTCCACCCGTTCGGAGTCACCTAGTGCAG	9030 fluorescence intensity (a.u.)
AACGCTCATCTTATAGGCTGCTTCGATTCCTACTCGTCACCGGAGTCACCTAGTGCAG	11500 fluorescence intensity (a.u.)
GCTATGTTGGACTCTCTCTTTGAACATGCATGCGAGCAATCGGAGTCACCTAGTGCAG	8100 fluorescence intensity (a.u.)
CGCCCCAGGGCCACCACCTCGCCGCCGGTAAACCCTAGCCCGGAGTCACCTAGTGCAG	9540 fluorescence intensity (a.u.)
GGGCTAGTGTTTTTATGGTGTGGTTGGGGATTCAGCTTGCCGGAGTCACCTAGTGCAG	11600 fluorescence intensity (a.u.)
CCCGACCACGACTCTCTCTCCTCTTCGACTCTCTCCGCAACGGAGTCACCTAGTGCAG	10700 fluorescence intensity (a.u.)
CCTAATTTACTACTGCGTCTCTTATGTTCAGTATCTGTTCCGGAGTCACCTAGTGCAG	12000 fluorescence intensity (a.u.)
GGAGGGCGGTGGCGAGGGCGGCGGTGGCGCGGATGCTGGACGGAGTCACCTAGTGCAG	8960 fluorescence intensity (a.u.)
GTGCCGCCGACTTTCCTACATCGCGTCCATCCGTGTTCTTCGGAGTCACCTAGTGCAG	10200 fluorescence intensity (a.u.)
AAAATTGTCTTCTTTTTCTTCTCTGTTTTTCTCTCACTTACGGAGTCACCTAGTGCAG	12700 fluorescence intensity (a.u.)
TTAATTCTCATTCTTTAATTAATTTGGCCGTGGATTTATTCGGAGTCACCTAGTGCAG	8380 fluorescence intensity (a.u.)
AACCCCTACGTTTTAATGCGACCCGCCATCAATTCACTCTCGGAGTCACCTAGTGCAG	9220 fluorescence intensity (a.u.)
TGGGATGTTGGATTATTGTTGTACTATACATGGGTTTCAGCGGAGTCACCTAGTGCAG	8390 fluorescence intensity (a.u.)
CTGTCTTTTTGGGGTGTACTGGATATTACTCCCTCCGTCCCGGAGTCACCTAGTGCAG	9380 fluorescence intensity (a.u.)
CCCCTATGCTAGCATGCTACACCCTGTTTTGATCTCACTACGGAGTCACCTAGTGCAG	10600 fluorescence intensity (a.u.)
AGCTCCGGTCCTGACCTCGCCATCGCCATCTCTCCAGTCTCGGAGTCACCTAGTGCAG	10900 fluorescence intensity (a.u.)
TTACGTTATAGTTTTTTCAGTTCGCCCGTACTGATCATGTCGGAGTCACCTAGTGCAG	8910 fluorescence intensity (a.u.)
GGGAAAGGCCGGGGCTTGGTGGTGGTGGTGGTGGTAAGTTCGGAGTCACCTAGTGCAG	14700 fluorescence intensity (a.u.)
GCCAATTTTTTCTCCTCACATCTATTTTACCCTATTATTCCGGAGTCACCTAGTGCAG	8390 fluorescence intensity (a.u.)
TTCCGTCTCGTATTCGCTCCGTATCTGTATTCGATAATATCGGAGTCACCTAGTGCAG	8040 fluorescence intensity (a.u.)
CTATCTAACTACGAACTTGCCATTTCCCTACAGTACATATCGGAGTCACCTAGTGCAG	8370 fluorescence intensity (a.u.)

Quoted from the listing:
In binding signal, AACGCTCATCTTATAGGCTGCTTCGATTCCTACTCGTCACCGGAGTCACCTAGTGCAG has the entry 11500 fluorescence intensity (a.u.)
In binding signal, GCCAATTTTTTCTCCTCACATCTATTTTACCCTATTATTCCGGAGTCACCTAGTGCAG has the entry 8390 fluorescence intensity (a.u.)
In binding signal, CTATCTAACTACGAACTTGCCATTTCCCTACAGTACATATCGGAGTCACCTAGTGCAG has the entry 8370 fluorescence intensity (a.u.)
In binding signal, CCCGACCACGACTCTCTCTCCTCTTCGACTCTCTCCGCAACGGAGTCACCTAGTGCAG has the entry 10700 fluorescence intensity (a.u.)

(continued)

Sequence	binding signal
TGACGCTAAGATGTACCTTTTGATCATTTTTCTTTGAGGACGGAGTCACCTAGTGCAG	8240 fluorescence intensity (a.u.)
TTCTTGTGGTCTACTGGCCAAAATTTTGACTCCTTCAGTTCGGAGTCACCTAGTGCAG	9450 fluorescence intensity (a.u.)
GCGCTTAACTTTGGTCTAATTTTCATTTCTTAATCTTCATCGGAGTCACCTAGTGCAG	8820 fluorescence intensity (a.u.)
TGACTTTTTCTCACATGTTTGACCATTCGTCTTATTAAAACGGAGTCACCTAGTGCAG	12500 fluorescence intensity (a.u.)
TATGCTGGTTCTGTTGTTGTGCAAGAAACTATTGCCTTACCGGAGTCACCTAGTGCAG	8060 fluorescence intensity (a.u.)
CTTTATTTTTTTTGAGTTTTTCTTTCCAGGTTTCTCGATCCGGAGTCACCTAGTGCAG	9110 fluorescence intensity (a.u.)
TGACTTTTTCTCACATGTTTGACCATTCGTCTTATTCAAACGGAGTCACCTAGTGCAG	10900 ± 914 fluorescence intensity (a.u.)
CTCTCTTTCTTGGCCGTCTCTCTTATATCCCTCAATTTAACGGAGTCACCTAGTGCAG	14900 fluorescence intensity (a.u.)
GGTATCTTCAGTTCTGCACGCCTATTTAACCGCCGAATTCCGGAGTCACCTAGTGCAG	10900 fluorescence intensity (a.u.)
CAACGCTAATATCATCACCGTCTCTGTCACACCTTCCAAACGGAGTCACCTAGTGCAG	8570 fluorescence intensity (a.u.)
ATAAGTTTCTCATCATGCTTTATTTATATTATTTTCTTTTCGGAGTCACCTAGTGCAG	10900 fluorescence intensity (a.u.)
CGTCTGCCCTGTCCTCTCCTCATCGACCGGCGCCGGAAGGCGGAGTCACCTAGTGCAG	8110 fluorescence intensity (a.u.)
TACTTTGAGCTCCGGTCATTATCGATCTTGACCAGAGAGACGGAGTCACCTAGTGCAG	8070 fluorescence intensity (a.u.)
TGGGCCCATATGCTTTATTGTTTTTCCGGACCCAATTGTCCGGAGTCACCTAGTGCAG	8270 fluorescence intensity (a.u.)
TTGCTTCCACTCATGCAACTGCTTTTGCACAACTTGATGACGGAGTCACCTAGTGCAG	9850 fluorescence intensity (a.u.)
ATCAATGCCTACTAATATGATTCGTGTTATTGTCCGTGTTCGGAGTCACCTAGTGCAG	10100 fluorescence intensity (a.u.)
CTCTCCCACTCTTCTCTCTGGATTGGGCAAGCCGGCCGGTCGGAGTCACCTAGTGCAG	8860 fluorescence intensity (a.u.)
TTCCTCTCCCGACCCTGACGTGGTTCACTTTGAGTATCGCCGGAGTCACCTAGTGCAG	15900 fluorescence intensity (a.u.)
TACATGTATCTAGCCATGTTTTCATATGAATTATTAGTTCCGGAGTCACCTAGTGCAG	10200 fluorescence intensity (a.u.)
GTGATTCCTCCGCGCTTCACTCCACCACCACCGCTGTACCCGGAGTCACCTAGTGCAG	8090 fluorescence intensity (a.u.)
CTAACCCTAACTTGGCCTTTTTTTTAAGGGAATGCTAGTCCGGAGTCACCTAGTGCAG	9150 fluorescence intensity (a.u.)

Sequence	binding signal
ATCGGGGTTGTGGAAGTCCAGATTTGGATCCTGCAGGCTCCGGAGTCACCTAGTGCAG	8160 fluorescence intensity (a.u.)
CATGTATTGGTCATTGTTAGCTATTACACAGGCATTTATTCGGAGTCACCTAGTGCAG	8500 fluorescence intensity (a.u.)
TTCGCTGTAGATTTGGTTTTGTTTTATTTGTGTTTTGCTTCGGAGTCACCTAGTGCAG	10400 fluorescence intensity (a.u.)
ATATTCTTTCCAATTTTTTACCCTCATGCAACCATATTTCCGGAGTCACCTAGTGCAG	10700 fluorescence intensity (a.u.)
GCAGACCACTGTACTTGGCCCGCGAGTGTCCGATGACATCCGGAGTCACCTAGTGCAG	8080 fluorescence intensity (a.u.)
GATCGCAGGCCATCAGCTTCCTTATCCGGCTAACTGACGACGGAGTCACCTAGTGCAG	10900 fluorescence intensity (a.u.)
ATACAATATGCATGTTACACATTAGTAGTTTCGTAAAGTTCGGAGTCACCTAGTGCAG	9040 fluorescence intensity (a.u.)
GCTCTTTGGCCTGCTTCAGCCTTCAGCTTCTCCATGGTTTCGGAGTCACCTAGTGCAG	10700 fluorescence intensity (a.u.)
GTCGGCGCGACCGCGGTCAAACGGCATTTTGGACCGGCGACGGAGTCACCTAGTGCAG	10100 fluorescence intensity (a.u.)
TGGCTATTGTCTTTCACTTTTTCGTCCGTTGGATTTTGCACGGAGTCACCTAGTGCAG	9200 fluorescence intensity (a.u.)
GCTAAGATTGATATCCTGTTTGGTCAAATGCACGCTCTTTCGGAGTCACCTAGTGCAG	9360 fluorescence intensity (a.u.)
AGTGCACTCAGTCCCTTCCCCTACTTCCTCTTTTTTTTTTCGGAGTCACCTAGTGCAG	8310 fluorescence intensity (a.u.)
CAGTGATCATTTCATCTACACACATATTCCGGTTTAACAACGGAGTCACCTAGTGCAG	8430 fluorescence intensity (a.u.)
GCTATGTATTGTGCAGTAATGTTAGGTTGTTTATGAGTTTCGGAGTCACCTAGTGCAG	9930 fluorescence intensity (a.u.)
GCCCATCTTCTCCTAATTTCTGTGAGTAATCCATTCATAACGGAGTCACCTAGTGCAG	8670 fluorescence intensity (a.u.)
AGTTTGGTCAAGTTTTTTCAGTTCTTTTTTTTCTATTAATCGGAGTCACCTAGTGCAG	12800 fluorescence intensity (a.u.)
CTCTTAGCAATGCTGACTGGTCCGATCAAAGTCAACGGTTCGGAGTCACCTAGTGCAG	8730 fluorescence intensity (a.u.)
ATGGCACTAGCTGCCGTGGAGAATCTCTATGCATTGTTTCCGGAGTCACCTAGTGCAG	8160 fluorescence intensity (a.u.)
CCTTACTATGTGTGTCATCCAACATCTCTATGATAAATTTCGGAGTCACCTAGTGCAG	8590 fluorescence intensity (a.u.)
TTGGTTGGTTGGTTGATTGCTCGCGCCCCGCGCGGTTGCGCGGAGTCACCTAGTGCAG	12200 fluorescence intensity (a.u.)
CCATCGCCGCTCTGCCTGCATCCTGCGCTACTCTGCCCACCGGAGTCACCTAGTGCAG	9770 fluorescence intensity (a.u.)
